The subject of the test is CD2F1 mice, ip Colon 26 adenocarcinoma, median survival T/C. The test is described as follows: NCI In Vivo Anticancer Drug Screen. Data for tumor model Colon 26 Adenocarcinoma (intraperitoneal) in CD2F1 (CDF1) mice. To be noted: T/C endpoint: median survival time, higher T/C = longer survival. As for the experimental part: The antitumor activity of compounds was measured in mice bearing transplantable tumors. Survival or tumor size were measured and the results are expressed as the measurement made in the treated group (T) divided by the measurement made in the vehicle treated control group (C). The tumor model used in this assay is Colon 26 Adenocarcinoma (intraperitoneal) in CD2F1 (CDF1) mice

Setting [1] is: dose: 25.0 mg/kg/injection, schedule: Q04DX003 (ip), vehicle: saline.
Setting [2] is: dose: 100.0 mg/kg/injection, schedule: Q04DX003 (ip), vehicle: saline.

The list shows only some results of the screen, not a fair sample: it gathers tests that were run many times, whatever their T/C, doses with no T/C, and many T/C values between a quarter and a half above the control. Other doses and runs of a compound stand elsewhere. T/C is the treated group as % of the vehicle group. Some entries give survivors of the animals treated and no T/C: the source files T/C as zero there, which appears to mark a toxic dose or a test without result, not a measured value. Some survivor counts are full or nearly so, which does not show that the dose was tolerated: survival well below the control is almost never listed, so the zero probably covers shortened survival too. Counts of survivors are from the toxicity check (mostly the fifth day) where no day follows; animals may have died later. Schedule codes are those of the source, taken here to give the interval after Q, in days (D) or hours (H), and the number of doses after X. For survival time, this PubChem deposit counts one and a half times the control or more as active, and values a quarter to a half above the control carry no call in these data; other NCI protocols may use other cut-offs. Some T/C values are followed by the survivors on the day toxicity was checked, most often the fifth; where none is given, no animal had died by that day. Some doses were run more than once; their values stand side by side, smallest first. Signs of the kind (2×) say how often a value occurs here.

In PubChem BioAssay AID210 (DTP/NCI, 2004) one finds T/C and survivor count data, which are given here for twelve compounds.

With `COc1cccc2c1C(=O)c1c(O)c3c(c(O)c1C2=O)C[C@@](O)(C(C)=O)C[C@@H]3OC1CC(N(C)C)C(O)C(C)O1` (stereo partly drawn), the T/C is, setting by setting: (dose: 3.24 mg/kg/injection, schedule: Q04DX003 (ip), vehicle: water) 125 % of control; (dose: 9.0 mg/kg/injection, schedule: Q04DX003 (ip), vehicle: water) 130 % of control; (dose: 17.0 mg/kg/injection, schedule: Q07DX002 (iv), vehicle: saline) 129 % of control.

Turning to `COc1cccc2c1C(=N)c1c(O)c3c(c(O)c1C2=O)C[C@@](O)(C(C)=O)C[C@@H]3OC1CC(N)C(O)C(C)O1` (stereo partly drawn), the survivor count (dose: 16.0 mg/kg/injection, schedule: Q04DX003 (ip), vehicle: water) is recorded as 8 of 8.

On to `Nc1ccc(C(=O)O)c(O)c1`, for which the survivor count reads like this: (dose: 112.5 mg/kg/injection, schedule: Q04DX002 (ip), vehicle: saline with Tween-80) 10 of 10; (dose: 225.0 mg/kg/injection, schedule: Q04DX002 (ip), vehicle: saline with Tween-80) 10 of 10; (dose: 450.0 mg/kg/injection, schedule: Q04DX002 (ip), vehicle: saline with Tween-80) 10 of 10; (dose: 900.0 mg/kg/injection, schedule: Q04DX002 (ip), vehicle: saline with Tween-80) 4 of 10; (dose: 1800.0 mg/kg/injection, schedule: Q04DX002 (ip), vehicle: saline with Tween-80) 0 of 10.

Regarding `CN(C)C(=O)c1cccc(COc2ccc(N3C(N)=NC(N)=NC3(C)C)cc2Cl)c1`, for the setting “dose: 54.0 mg/kg/injection, schedule: Q06HX018 (ip), vehicle: saline”, the survivor count is 3 of 10.

For `Cc1ccc(S(=O)(=O)N/N=C/C(=O)O)cc1`, the survivor count (dose: 400.0 mg/kg/injection, schedule: Q04DX003 (ip), vehicle: saline with Tween-80) is listed as 4 of 10.

`CCC(=O)O[C@H]1CC[C@H]2[C@@H]3CCC4=CC(=O)CC[C@]4(C)[C@H]3CC[C@]12C`: the T/C is, setting by setting: (dose: 40.0 mg/kg/injection, schedule: Q04DX003 (ip), vehicle: Klucel (hydroxypropylcellulose) (HPC), evaluated on day 60) 95 and 107 % of control; (dose: 40.0 mg/kg/injection, schedule: Q04DX003 (ip), vehicle: Klucel (hydroxypropylcellulose) (HPC), evaluated on day 70) 95 and 101 % of control; (dose: 80.0 mg/kg/injection, schedule: Q04DX003 (ip), vehicle: Klucel (hydroxypropylcellulose) (HPC), evaluated on day 60) 104 % of control; (dose: 80.0 mg/kg/injection, schedule: Q04DX003 (ip), vehicle: Klucel (hydroxypropylcellulose) (HPC), evaluated on day 70) 96 and 102 % of control; (dose: 160.0 mg/kg/injection, schedule: Q04DX003 (ip), vehicle: Klucel (hydroxypropylcellulose) (HPC), evaluated on day 60) 101 % of control; (dose: 160.0 mg/kg/injection, schedule: Q04DX003 (ip), vehicle: Klucel (hydroxypropylcellulose) (HPC), evaluated on day 70) 95 (2×) and 98 % of control. Also, the T/C (dose: 320.0 mg/kg/injection, schedule: Q04DX003 (ip), vehicle: Klucel (hydroxypropylcellulose) (HPC), evaluated on day 60) was 88 and 94 % of control; the T/C (dose: 320.0 mg/kg/injection, schedule: Q04DX003 (ip), vehicle: Klucel (hydroxypropylcellulose) (HPC), evaluated on day 70) is 92 and 98 % of control (2×); the T/C (dose: 640.0 mg/kg/injection, schedule: Q04DX003 (ip), vehicle: Klucel (hydroxypropylcellulose) (HPC), evaluated on day 60) is 101 % of control; the T/C (dose: 640.0 mg/kg/injection, schedule: Q04DX003 (ip), vehicle: Klucel (hydroxypropylcellulose) (HPC), evaluated on day 70) was 89 [9 of 10 alive], 94, 104 % of control. Further, the survivor count (dose: 40.0 mg/kg/injection, schedule: Q04DX003 (ip), vehicle: saline) is 10 of 10; the survivor count (dose: 80.0 mg/kg/injection, schedule: Q04DX003 (ip), vehicle: Klucel (hydroxypropylcellulose) (HPC)) was 10 of 10; the survivor count (dose: 160.0 mg/kg/injection, schedule: Q04DX003 (ip), vehicle: Klucel (hydroxypropylcellulose) (HPC)) is recorded as 10 of 10; the survivor count (dose: 320.0 mg/kg/injection, schedule: Q04DX003 (ip), vehicle: saline) is 10 of 10; the survivor count (dose: 640.0 mg/kg/injection, schedule: Q04DX003 (ip), vehicle: Klucel (hydroxypropylcellulose) (HPC)) is recorded as 10 of 10; the survivor count (dose: 1280.0 mg/kg/injection, schedule: Q04DX003 (ip), vehicle: Klucel (hydroxypropylcellulose) (HPC)) was 1 of 10.

Turning to `Oc1cc2c3c(c1)c1cc4c(cc1c[n+]3CC2)OCO4`, the T/C is, setting by setting: (dose: 3.12 mg/kg/injection, schedule: Q01DX009 (ip), vehicle: distilled water + Tween-80) 147 % of control; (dose: 6.25 mg/kg/injection, schedule: Q01DX009 (ip), vehicle: distilled water + Tween-80) 126 % of control; (dose: 12.5 mg/kg/injection, schedule: Q01DX009 (ip), vehicle: distilled water + Tween-80) 131 % of control; (dose: 12.5 mg/kg/injection, schedule: Q04DX003 (ip), vehicle: distilled water + Tween-80) 147 % of control; (dose: 25.0 mg/kg/injection, schedule: Q04DX003 (ip), vehicle: distilled water + Tween-80) 147 % of control; (dose: 50.0 mg/kg/injection, schedule: Q04DX003 (ip), vehicle: distilled water + Tween-80) 130 % of control [8 of 10 alive]. Further, the survivor count is listed as 8 of 10 (dose: 25.0 mg/kg/injection, schedule: Q01DX009 (ip), vehicle: distilled water + Tween-80) and 0 of 10 (dose: 50.0 mg/kg/injection, schedule: Q01DX009 (ip), vehicle: distilled water + Tween-80).

As for `O=NN(CCCl)C(=O)NC1CCCCC1`, the T/C (dose: 20.0 mg/kg/injection, schedule: Q04DX003 (ip), vehicle: carboxymethylcellulose (CMC)) is 130 % of control. In addition, where the note is “dose: 160.0 mg/kg/injection, schedule: Q04DX003 (ip), vehicle: carboxymethylcellulose (CMC)”, the survivor count was 10 of 10.

Take `COc1cccc2c1C(=O)c1c(O)c3c(c(O)c1C2=O)C[C@@](O)(C(C)=O)C[C@@H]3OC1CC(N(Cc2ccccc2)Cc2ccccc2)C(O)C(C)O1` (stereo partly drawn): the T/C by setting is: (dose: 6.0 mg/kg/injection, schedule: Q04DX002 (ip), vehicle: saline with Tween-80) 130 % of control; (dose: 12.0 mg/kg/injection, schedule: Q04DX002 (ip), vehicle: saline with Tween-80) 144 % of control; (dose: 25.0 mg/kg/injection, schedule: Q04DX002 (ip), vehicle: saline with Tween-80) 143 % of control.

On to `C1CN(P2(N3CC3)=NP(N3CC3)(N3CC3)=NP(N3CC3)(N3CC3)=N2)CCO1` (stereo not drawn), for which, under setting [1], the T/C was 135 % of control. Also, the survivor count runs as follows: under setting [2], 8 of 10; (dose: 200.0 mg/kg/injection, schedule: Q04DX003 (ip), vehicle: saline) 6 of 10.

Turning to `OCCN1CCN(CC/C=C2/c3ccccc3Sc3ccc(C(F)(F)F)cc32)CC1`, the survivor count is listed as 10 of 10 under setting [1]; 10 of 10 (dose: 50.0 mg/kg/injection, schedule: Q04DX003 (ip), vehicle: saline); 6 of 10 under setting [2].

For `CSC1SCC2C(=O)N(C)C(C(C)C)C(=O)OCC(NC(=O)c3cnc4ccccc4n3)C(=O)NC(C)C(=O)N(C)C1C(=O)N(C)C(C(C)C)C(=O)OCC(NC(=O)c1cnc3ccccc3n1)C(=O)NC(C)C(=O)N2C` (stereo not drawn), the survivor count is listed as 8 of 8 on day 10 (dose: 50.0 micrograms/kg/injection, schedule: Q01DX004 (ip), vehicle: saline sonified) and 8 of 8 on day 10 (dose: 50.0 micrograms/kg/injection, schedule: Q03DX002 (ip), vehicle: saline sonified).
